Data source: PubChem BioAssay AID504786 (Drosophila RNAi Screening Center, 2011)
In all, the deposit lists about 21,000 reagents; this is a random part of those that have a named target and a result. 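Primary screen; positive scores mean lost reporter signal, so the sign may be inverted from the usual convention.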 Reagents against one gene are numbered here. Not all columns of the deposit are shown. Reagent sequences are not shown.

Test: 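Positive regulators of HIF-driven reporter output in Drosophila cells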 (primary screen)
Cells: Drosophila S2 cells with a stable HIF luciferase reporter
Reagents: long dsRNA against Drosophila genes, about 0.2 µg dsRNA per well of a 384-well plate
Duration: three days of knock-down, then 20 h of DFO before reading
Treatment: desferrioxamine (DFO) at 100 µM, an iron chelator that mimics hypoxia, for 20 h
Measured: 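HIF reporter luminescence in cells given 100 µM DFO for 20 h, using the mouse ldh-a hypoxia-response element, scored as per-plate z-scores; higher means greater loss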
Scale: z-score: higher = stronger loss of HIF reporter signal

| gene | reagent | z-score, replicate 1 | z-score, replicate 2 |
| --- | --- | --- | --- |
| CG30259 | 1 | -0.1 | -0.4 |
| CG30259 | 2 | -0.3 | -0.3 |
| Obp19d | 1 | -0.3 | 0 |
| CG6380 | 1 | -0.2 | -0.3 |
| CG5079 | 1 | 0.2 | -0.9 |
| CG12237 | 1 | -0.4 | -0.4 |
| Wbp2 | 1 | 1.7 | 1.6 |
| CG13506 | 1 | -0.3 | -0.2 |
| Npc2e | 1 | -0.3 | -0.6 |
| Cpr65Ea | 1 | -0.4 | -0.4 |
| Fem-1 | 1 | -0.4 | -0.6 |
| CG6329 | 1 | -0.3 | -0.2 |
| CG17059 | 1 | -0.5 | -0.2 |
| Etfb | 1 | -0.3 | -0.4 |
| CG7766 | 1 | -0.4 | -0.1 |
| Spn31A | 1 | -0.4 | -0.5 |
| Agpat1 | 1 | -0.3 | -0.4 |
| Agpat1 | 2 | -0.4 | -0.6 |
| GstE13 | 1 | -0.4 | -0.5 |
| RpL27 | 1 | 5.8 | 6.9 |
| CG34193 | 1 | 0 | -0.3 |
| Cyt-c1L | 1 | -0.2 | 0.7 |
| CG15563 | 1 | 0 | 0 |
| CG34324 | 1 | -0.2 | 0.4 |
| CG12307 | 1 | -0.1 | -0.1 |
| Dus2 | 1 | -0.2 | -0.3 |
| CG7341 | 1 | -0.3 | -0.5 |
| CG3358 | 1 | -0.3 | -0.8 |
| BTBD9 | 1 | -0.3 | -0.6 |
| dmrt93B | 1 | -0.7 | -0.7 |
| Traf6 | 1 | -0.2 | -0.6 |
| jagn | 1 | -0.4 | -0.7 |
| Ms | 1 | -0.2 | -0.3 |
| CG9636 | 1 | -0.4 | -0.6 |
| Tim13 | 1 | -0.3 | -0.5 |
| CG8850 | 1 | -0.2 | -0.1 |
| CG9550 | 1 | -0.3 | -0.6 |
| ItgaPS4 | 1 | -0.2 | -0.4 |
| Rrp4 | 1 | -0.1 | 1.6 |
| Dph4 | 1 | -0.4 | -0.9 |
| Orp8 | 1 | -0.8 | -0.9 |
| Orp8 | 2 | -0.2 | -0.7 |
| sty | 1 | -0.5 | -0.6 |
| Polr3F | 1 | 1.6 | 0.8 |
| CG4681 | 1 | -0.2 | -0.2 |
| Octbeta1R | 1 | 0.3 | 0.2 |
| Nepl7 | 1 | 0.7 | 0 |
| sno | 1 | -0.4 | -0.9 |
| Cdc2rk | 1 | 0 | 0.2 |
| CG5386 | 1 | -0.3 | -0.4 |
| CG13032 | 1 | -0.3 | -0.4 |
| Ir52d | 1 | 0.1 | -0.2 |
| CG6839 | 1 | -0.3 | -0.3 |
| bou | 1 | -0.2 | 0.1 |
| CG17141 | 1 | 0.4 | -0.2 |
| ssp | 1 | -0.1 | -0.1 |

Just “z-score, replicate 1” (8 entries from above):
Etfb	-0.3
CG7766	-0.4
Spn31A	-0.4
Agpat1 #1	-0.3
Agpat1 #2	-0.4
GstE13	-0.4
RpL27	5.8
CG34193	0
